# Measurements as given in paper doi:10.1101/621078.
# B1: RESA (protein, UniProt Q8I0U6 1-1085)
# chain: MRPFHAYSWIFSQQYMDTKNVKEKNPTIYSFDDEEKRNENKSFLKVLCSKRGVLPIIGILYIILNGNLGYNGSSSSGVQFTDRCSRNLYGETLPVNPYADSENPIVVSQVFGLPFEKPTFTLESPPDIDHTNILGFNEKFMTDVNRYRYSNNYEAIPHISEFNPLIVDKVLFDYNEKVDNLGRSGGDIIKKMQTLWDEIMDINKRKYDSLKEKLQKTYSQYKVQYDMPKEAYESKWTQCIKLIDQGGENLEERLNSQFKNWYRQKYLNLEEYRRLTVLNQIAWKALSNQIQYSCRKIMNSDISSFKHINELKSLEHRAAKAAEAEMKKRAQKPKKKKSRRGWLCCGGGDIETVEPQQEEPVQTVQEQQVNEYGDILPSLRASITNSAINYYDTVKDGVYLDHETSDALYTDEDLLFDLEKQKYMDMLDTSEEESVKENEEEHTVDDEHVEEHTADDEHVEEPTVADDEHVEEPTVADEHVEEPTVAEEHVEEPTVAEEHVEEPASDVQQTSEAAPTIEIPDTLYYDILGVGVNADMNEITERYFKLAENYYPYQRSGSTVFHNFRKVNEAYQVLGDIDKKRWYNKYGYDGIKQVNFMNPSIFYLLSSLEKFKDFTGTPQIVTLLRFFFEKRLSMNDLENKSEHLLKFMEQYQKEREAHVSEYLLNILQPCIAGDSKWNVPIITKLEGLKGSRFDIPILESLRWIFKHVAKTHLKKSSKSAKKLQQRTQANKQELANINNNLMSTLKEYVGSSEQMNSITYNFENINSNVDNGNQSKNISDLSYTDQKEILEKIVSYIVDISLYDIENTALNAAEQLLSDNSVDEKTLKKRAQSLKKLSSIMERYAGGKRNDKKAKKYDTQDVVGYIMHGISTINKEMKNQNENVPEHVQHNAEANVEHDAEENVEHDAEENVEENVEENVEENVEENVEENVEENVEENVEENVEENVEENVEENVEENVEENVEENVEEYDEENVEEVEENVEEYDEENVEEVEENVEENVEENVEENVEEYDEENVEEVEENVEENVEENVEENVEENVEEVEENVEENVEENVEENVEENVEENVEEYDEENVEEHNEEYDE
# B2: AP-1/2β (protein, UniProt Q8I3I6 1-929)
# chain: MSDLRYFQTTKKGEIHELKEELHSSHKEKKKEAIKKIIAAMTVGKDVSTLFSDVVNCMQTSNIELKKLVYLYVINYAKVQPELAILAVNTFRKDSSDPNPLIRALAIRTMGCIRLEQITEYLIEPLRRCLKDEDPYVRKTAVICIAKLYDISPKLVEEEGFIDTLLDILDDNNAMVVANAVISLTDICENSNKSILKDVINKDENNVNKLLNAINECVEWGQVFILDALVLYEPKTSKDAERVLERILPRLSHANSAVVLSSIKVILCLLDKINDKEFIKNVHKKLSPSLVTLLSAEPEIQYIALRNINLITQKLPNMLSDKINMFFCKYNEPAYVKMEKLDIIIRLVSDKNVDLVLYELKEYSTEVDVEFVKKSVRAIGSCAIKLPQSSEKCINILLDLIDTKINYVIQECIVVIKDIFRKYPNKYESIITILCENLESLDESNAKASLIWIIGEYVERIDNADELIDSFLENFSDEPYNVQLQILTASVKLFLKCSKNTKDIITKVLKLSTEESDNPDLRDRAYIYWRLLSKNIDVAKKIVLADKPPIQEENKITDTKVLNKLIKNISMLSSVYHKLPETFISKKNSYSLNSDNNNDHMQDDHYDDDDYDKDNHVLKIKKQMDKQKYDSYSSDNKKSNHSKSSSDSYNNSSDEFNNDIDDADDSKKSMDLIGLNDDESKPQKTIPPVKMVQVLSSEDAGLKGQTGLSIFASINRIDRKIQLKISVTNQTQNEIVVSGVQINKNSFGLSSPNNLDVQNIGFGETKEMLIYLIPNTLNSNTPPATPLFLQVAIRTNLDIFYFNVPYDIFVVFVENFHMEKDIFKKKWQIIEEAKESILMAVSPMVITSDMLIKRMKIFNISLIARRNVNNMELYYFACITTNNLVILSEVTIQPEKKNVKLCIRTDSSSVIPLYKLLFVKAFSLSVTQT
# B3: AP-2σ (protein, UniProt O96254 1-141)
# chain: MLNFILLQNRQGKTRFSKWYINCNEKKQKKIERDINKILINRSRSYANIFVYENFKIVYRLYAGLYFVVCIENENELYILEFIHFMAQLLDTFFTNVCELDLLFNFHFLYYFFDNIILGGYIYEINRNIILDKINKIKKLI
# Molecular target: CHC-2xFKBP-GFP (Plasmodium falciparum (3D7)) (UniProt Q8I5L6)
# Assay: affinity purification with mass spectrometry
row,Molecule,binding
1,AP-2α (from UniProt C6KT12 1-1236),no binding
2,Sortilin (from UniProt Q8IKV8 1-895),binds
3,B1,binds
4,B2,binds
5,B3,no binding

# Results are given in words; binding and its absence hold for the method and conditions named. Binding seen in cells or lysates may run through a third protein. These calls come from enrichment with a bait or labelling near it, and not all partners need be listed. A no says only that the protein was not detected with the bait.
